Results deposited as PubChem BioAssay AID720505 (Drosophila RNAi Screening Center, 2013).

Assay: 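Fly regulators or components of the CRAC channel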 (primary screen)
System: Drosophila S2R+ cells
Reagents: long dsRNA against Drosophila genes
Conditions: thapsigargin (2 µM) in calcium-free buffer to empty internal stores, then 2 mM calcium added back
Measurement: 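Fluo-4 signal in 384-well plates read on a FLIPR after thapsigargin (2 µM, calcium-free) store depletion and 2 mM calcium add-back; unnormalised mean endpoint per well; screen run twice, selected wells retested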
Scale: calcium signal and retest calcium signal: higher = more calcium entry after store depletion
Hit rule: 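Knock-downs counted as hits when calcium entry dropped relative to STIM1 positive and Rho1 negative controls present on each plate; roughly 1500 genes called, with reductions of differing size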
Calls: active = called as lowering calcium entry; inactive = not called
The deposit covers about 20,000 reagents; this is an unselected part of those with a known target gene and a result. Of all reagents, about 2,100 (10%) got an active call. 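Raw plate signals without normalisation; calls rest on control-based scores that were not deposited; replicate 2 separates called from uncalled poorly.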 Unmarked entries are inactive. No sequences are given here. The record does not give: the amount of reagent, the time to read-out.

predicted target | dsRNA | calcium signal, replicate 1 | calcium signal, replicate 2 | retest calcium signal, replicate 1 | retest calcium signal, replicate 2
CG43861 | DRSC02170 | 91.7 | 114 | – | –
CG43861 | DRSC02308 | 102 | 131 | – | –
Gr28b | DRSC02291 | 170 | 80.9 | – | –
Gr28b | DRSC02292 | 180 | 92 | – | –
shv | DRSC00640 | 90 | 116 | – | –
shv | DRSC22122 | 89.1 | 150 | – | –
aly | DRSC08707 | 79.6 | 121 | – | –
aly | DRSC21784 | 145 | 104 | – | –
CG4325 | DRSC18516 | 82.1 | 112 | – | –
CG4325 | DRSC23171 | 110 | 104 | – | –
CG13070 | DRSC09953 | 110 | 155 | – | –
CG8768 | DRSC07259 | 150 | 137 | – | –
Mef2 | DRSC07468 | 199 | 213 | – | –
CG4991 | DRSC19928 | 74.5 (active) | 110 | – | –
Mat89Ba | DRSC14540 | 135 | 216 | – | –
CG10051 | DRSC05959 | 138 | 94.2 | – | –
Cht7 | DRSC08538 | 62.8 (active) | 96.9 | – | –
Cht7 | DRSC21783 | 138 | 128 | – | –
CG14326 | DRSC14805 | 120 | 134 | – | –
dcma | DRSC00246 | 89.4 | 130 | – | –
dcma | DRSC00338 | 168 | 97.4 | – | –
HHEX | DRSC16186 | 152 | 120 | – | –
pgc | DRSC04099 | 191 | 80.9 | – | –
Nubp2 | DRSC11758 | 115 | 153 | – | –
Csgalnact | DRSC06228 | 145 | 106 | – | –
CG10486 | DRSC09735 | 77 | 77.1 | – | –
CG30087 | DRSC21677 | 204 | 115 | – | –
mal | DRSC20581 | 142 | 149 | – | –
CG10307 | DRSC04057 | 89.5 | 93.9 | – | –
CG14219 | DRSC19576 | 141 | 91.5 | – | –
Chc | DRSC20229 | 151 | 122 | – | –
CG31161 | DRSC16144 | 134 | 94.2 | – | –
CG2983 | DRSC00558 | 217 | 118 | – | –
Asciz | DRSC08421 | 84.5 | 110 | – | –
Mulk | DRSC02658 | 94.3 | 124 | – | –
mRpL41 | DRSC06257 | 107 | 166 | – | –
Hey | DRSC07440 | 109 | 78.6 | – | –
Hey | DRSC23030 | 138 | 205 | – | –
COX7AL2 | DRSC00099 | 86.5 (active) | 93.5 | – | –
Psn | DRSC11743 | 82.3 | 111 | – | –
CG4073 | DRSC15542 | 161 | 122 | – | –
CG8531 | DRSC07209 | 196 | 144 | – | –
7B2 | DRSC11991 | 120 | 141 | – | –
CG33458 | DRSC22891 | 105 | 134 | – | –
Tm1 | DRSC13083 | 7354 | 147 | – | –
Tm1 | DRSC16886 | 80 | 107 | – | –
CG8545 | DRSC07210 | 131 | 134 | – | –
Osi16 | DRSC12135 | 103 | 85.9 | – | –
Osi16 | DRSC21323 | 107 | 101 | – | –
CG42258 | DRSC19741 | 67.7 (active) | 124 | – | –
CG42258 | DRSC19783 | 59 (active) | 115 | – | –
CG42258 | DRSC23161 | 122 | 97.1 | – | –
dachs | DRSC01026 | 72.9 (active) | 138 | 98.3 | 73.1
dachs | DRSC02072 | 101 | 246 | – | –
dachs | DRSC02191 | 142 | 158 | – | –
zfh1 | DRSC14014 | 66.5 (active) | 45.1 | – | –
zfh1 | DRSC17098 | 120 | 176 | – | –
